Measurements from PubChem BioAssay AID540256 (National Center for Advancing Translational Sciences (NCATS), 2011).
Where “and” joins values, the source holds several entries; their conditions need not be identical. Equal values may be shown once. Among all 300,000 compounds or so, about 3,700 (1.2%) were called active. Inconclusive means that the source gave no clear call. Such entries were picked first, then a sample of the others. Calls follow the shape of the full dose curve; tested in HEK293 cells. Potencies of inconclusive entries are doubtful fits and often do not repeat. The source holds several records for some structures; these can differ, active in one and inactive in another.

Assay: qHTS for Inhibitors of binding or entry into cells for Lassa Virus; also: nearly all actives have a fitted effect of over 50% in size
Conditions: Lassa virus pseudotype entry inhibition, cell reporter; series mostly up to 37.9 µM
Potency is read from the fitted curve at half-maximal effect.

Structure (SMILES) | Potency
O=C(c1cc(-c2ccc(F)cc2)on1)N1CCCC1 | inconclusive: 11.2 µM [inhibitor, single point]
CCOc1ccc(-c2nnc(-c3ccncc3)o2)cc1 | inactive
Cc1ccc(-c2nnn(CC(=O)N(Cc3cccs3)C(C(=O)NC3CCCC3)c3ccncc3)n2)cc1 (stereo not given) | inconclusive: 8.2 µM [inhibitor, partial curve]
CS(=O)(=O)N(Cc1ccccc1Cl)c1ccc(C(=O)NCc2ccccn2)cc1 | inactive
CNC(=O)C[C@H]1C(=O)N(C2CCCCC2)C[C@@H]1C | inactive
O=C(c1ccccc1)n1ccn(-c2ccccc2)c1=S | inactive
C/C(=N/NC(=O)c1cccs1)c1cccc(N)c1 | inactive
COc1cc(OC)c(-c2cc(C(=O)O)ccc2OC)c(OC)c1 | inconclusive: 3.16 µM [activator, partial curve, poor fit]
CCN(CC)S(=O)(=O)c1cccc(NC(=O)COc2ccc(Cl)cc2Br)c1 | inconclusive: 29.1 µM [inhibitor, single point]
CCCCC(=O)Nc1ccc(C(=O)OC2CCCCC2)cc1 | inconclusive: 11.2 µM [inhibitor, partial curve, poor fit]
CCOC(=O)c1ccccc1NC(=O)CSc1nnc(Cc2cccn2C)n1-c1ccc(F)cc1 | inconclusive: 29.1 µM [inhibitor, single point]
CCn1c(C)nc2cc(OC)ccc21 | inactive
COC(=O)c1ccc(Cl)c(NC(=O)NC23CC4CC(CC(C4)C2)C3)c1 | inconclusive: 29.1 µM [inhibitor, partial curve, poor fit]
CCN(C(=O)CN1CCN(S(=O)(=O)c2ccccc2C(F)(F)F)CC1)c1c(N)n(Cc2ccccc2)c(=O)[nH]c1=O | inactive
CC(C)NC(=O)CN1CCN(Cc2nc(C(c3ccccc3)c3ccccc3)no2)CC1 | inactive
Cc1ccc(S(=O)(=O)NCCc2ccccc2)cc1 | inconclusive: 2.91 µM [activator, full curve, poor fit]
O=[N+]([O-])c1ccccc1/C=C/C=N/N1CCCCC1 | inconclusive: 20 µM [inhibitor, single point]
COc1ccccc1C(=O)Nc1ccc2c(c1)OCO2 | inactive
CC(C)(C)C(=O)Nc1ccc(-c2cn3ccsc3n2)cc1 | inconclusive: 2.51 µM [inhibitor, full curve, poor fit]
O=C(CC1SC(=NCC2CCCO2)NC1=O)Nc1cc([N+](=O)[O-])ccc1Cl (stereo not given) | inconclusive: 0.126 µM [inhibitor, full curve, poor fit]
CC(=O)c1cccc(NC(=O)Nc2ccc(C(=O)N3CCOCC3)cc2)c1 | inconclusive: 0.058 µM [inhibitor, full curve, poor fit]
Cc1ccc(S(=O)(=O)Nc2ccc3nc(C)sc3c2)cc1 | inconclusive: 35.5 µM [inhibitor, single point]
O=C(N=C1SC2CS(=O)(=O)CC2N1c1ccc(Br)cc1Cl)C1CC1 (stereo not given) | inconclusive: 0.631 µM [inhibitor, full curve, poor fit]
COc1ccc2c(c1OC)C(=O)N1N=C(c3ccc(O)cc3)CC21 (stereo not given) | inactive

Sorted by SMILES length (ascending): 4 of the compounds above
Structure (SMILES) | Potency
COc1ccccc1C(=O)Nc1ccc2c(c1)OCO2 | inactive
CCOc1ccc(-c2nnc(-c3ccncc3)o2)cc1 | inactive
COC(=O)c1ccc(Cl)c(NC(=O)NC23CC4CC(CC(C4)C2)C3)c1 | inconclusive: 29.1 µM [inhibitor, partial curve, poor fit]
CCOC(=O)c1ccccc1NC(=O)CSc1nnc(Cc2cccn2C)n1-c1ccc(F)cc1 | inconclusive: 29.1 µM [inhibitor, single point]

The list continues.

Structure (SMILES) | Potency
CC(=O)c1ccc(OCc2cc(C(=O)N3CC[C@@H]4CCCC[C@H]4C3)no2)cc1 | inconclusive: 14.1 µM [inhibitor, partial curve, poor fit]
COc1cc(OC)c(OC)cc1/C=C/C(=O)c1ccc(NS(=O)(=O)c2ccc(C)cc2)cc1 | inconclusive: 0.651 µM [inhibitor, partial curve, poor fit]
O=C1CCCN1CCCN=c1c([N+](=O)[O-])nn(-c2ccc(Cl)cc2)n1O | inconclusive: 22.4 µM [inhibitor, partial curve, poor fit]
O=C(/C=C(\c1ccc(Cl)cc1)n1cncn1)c1ccc(Cl)cc1 | inconclusive: 7.3 µM [inhibitor, partial curve]
O=C(NC1CCc2ccccc21)C1CCN(S(=O)(=O)c2ccc(Cl)cc2)CC1 (stereo not given) | inactive
CCOC(=O)c1cc(-c2ccc(OC)c(S(=O)(=O)NCc3ccccc3Cl)c2)on1 | inactive
Oc1cccc(/C=N/N=C/c2cccc(O)c2O)c1O | active: 11.2 µM
Cc1ccc(-c2nnc(NCc3nc4ccccc4[nH]3)c3ccccc23)cc1S(=O)(=O)N(C)C | active: 17.8 µM
NC(=O)c1ncn([C@@H]2O[C@H](CO)[C@@H](O)[C@H]2O)n1 | active: 23.1 µM
Cc1ccccc1NC(=O)c1cc([N+](=O)[O-])ccc1NCCN1C(=O)CCC1=O | inactive
CCN(C(=O)COc1ccc(N(C)S(=O)(=O)c2ccc(NC(C)=O)cc2)cc1)C1CCCCC1 | inconclusive: 12.6 µM [inhibitor, single point]
CN(CC(=O)Nc1cccc(S(=O)(=O)NC2=NCCCCC2)c1)Cc1ccc(C(C)(C)C)cc1 | inconclusive: 7.94 µM [inhibitor, partial curve, poor fit]
CCc1nc2ccccc2c(C(=O)OCCN2C(=O)c3ccccc3C2=O)c1C | inconclusive: 0.282 µM [inhibitor, full curve]
CS(=O)(=O)N(CC(=O)Nc1ccc(Br)cc1F)C1CCCCC1 | inconclusive: 35.5 µM [inhibitor, single point]
O=C(NCCCN1CCc2ccccc2C1)Nc1ccc(Br)cc1 | inactive
Cc1ccc(Cl)cc1N1CCN(C(=O)c2cc3ccc4cccnc4c3[nH]2)CC1 | inconclusive: 35.5 µM [inhibitor, single point]
O=[N+]([O-])c1ccccc1OC/C(=N\O)c1ccccc1 | inactive
FC(F)(F)COc1nc(N2CCOCC2)nc(N(c2ccccc2)c2ccccc2)n1 | inconclusive: 29.1 µM [inhibitor, single point]
O=C(NCc1ccc(Cl)cc1)C1=Cc2cc(Br)ccc2OC1 | inactive
COc1ccc2ccccc2c1/C=N/Nc1cccc(C(=O)O)c1 | inactive
CCn1c(=O)cc(OCC(=O)N(C)c2ccc(OC)cc2)c2ccccc21 | inactive
O=C1CN(C(=O)c2cc(F)cc(F)c2)c2ccccc2N1 | inconclusive: 28.2 µM [inhibitor, partial curve, poor fit]
S=c1[nH]nc(COc2ccccc2)n1/N=C/C=C/c1ccco1 | active: 0.794 µM
Cc1ccc(-c2nc3ccc(C(=O)O)cc3nc2-c2ccc(C)cc2)cc1 | inactive

Structure (SMILES) | Potency
COc1ccccc1C(=O)N/C(=C\c1ccc2c(c1)OCO2)C(=O)NCCc1nc2ccccc2[nH]1 | inconclusive: 11.2 µM [activator, partial curve, poor fit]
C/C(N)=C(/C#N)C(=O)CSc1nc2ccccc2c(=O)n1-c1ccc(C)c(Cl)c1 | inactive
CCSc1nc2ccccc2n1CCOc1ccccc1 | inactive
COc1ccc2c(c1)O[C@@H](c1cccc(C(F)(F)F)c1)[C@H](OC(=O)Nc1ccc(OC(F)F)cc1)C2=O | inconclusive: 59.6 nM [inhibitor, full curve, poor fit] and inconclusive: 32.6 µM [inhibitor, single point]
CCCNC(=O)c1ccc(C2SCC(=O)N2Cc2ccccc2)cc1 (stereo not given) | inconclusive: 12.6 µM [inhibitor, partial curve, poor fit]
O=c1c2ccccc2nc(-c2ccco2)n1-c1ccccc1 | inactive
CCOc1ccc(Br)cc1C1C(C(=O)OC)=C(C)NC2=C1C(=O)c1ccccc12 (stereo not given) | inactive
CCN(C(=O)CSc1ncc2c(n1)-c1cc(Cl)ccc1N(Cc1ccccc1)S2(=O)=O)c1cccc(C)c1 | inactive
COc1ccc(CCNC(=O)COc2ccc(S(=O)(=O)N3CCCC3)cc2)cc1 | inconclusive: 0.891 µM [inhibitor, full curve, poor fit]
COc1cc(CNC(C)(C)CO)ccc1OCC(=O)Nc1ccc(Br)cc1 | inactive
C#CCN1C(=O)C2(CC(C)=C[C@@H](C)O2)c2c(Br)cccc21 (stereo not given in full) | inconclusive: 4.73 µM [activator, single point]
O=[N+]([O-])c1ccccc1S(=O)(=O)Oc1ccc(C(=S)N2CCOCC2)cc1 | inconclusive: 35.5 µM [inhibitor, single point]
CC(C)N1C/C(=C/c2cccnc2)C(=O)/C(=C/c2cccnc2)C1 | active: 12.6 µM
O=C1CC(c2cccnc2)=NN1c1ccc(Cl)cc1Cl | inactive
COc1ccc(C)cc1NC(=O)c1c2c(nc3ccccc13)C(=O)N(C1CCCCC1)C2 | inconclusive: 1 µM [inhibitor, full curve, poor fit]
CC(C)Oc1ccc(CNC(=O)c2ccc3c(c2)nc2n3CCCCC2)cc1 | inconclusive: 3.98 µM [activator, single point]
CCc1ccc(OCC(O)CN2CCN(CCO)CC2)cc1 (stereo not given) | inconclusive: 0.891 µM [inhibitor, single point]
CN=c1scc(-c2ccco2)n1/N=C/c1ccc(O)c(O)c1 | inconclusive: 6.31 µM [inhibitor, partial curve, poor fit]
C=C(C)C(=O)Oc1ccc(N2C(=O)[C@@H]3C4C=CC(C4)[C@@H]3C2=O)cc1 | inconclusive: 15.8 µM [inhibitor, single point]
Cc1ccc(S(=O)(=O)N(CC(=O)N/N=C/c2ccco2)c2cc(Cl)cc(Cl)c2)cc1 | inconclusive: 25.9 µM [inhibitor, single point]
CCOc1ccc(CN2CCN(Cc3ccc4cc(F)ccc4n3)CC2CCO)cc1 (stereo not given) | inconclusive: 35.5 µM [inhibitor, single point]
O=C(CSC1=Nc2ccccc2C2CC=NN12)Nc1ccc(F)cc1Cl (stereo not given) | inconclusive: 1.26 µM [inhibitor, single point]
